# In PubChem BioAssay AID1347075 (National Center for Advancing Translational Sciences (NCATS), 2019):
# About 5,500 (1.4%) of roughly 400,000 compounds were called active. Inconclusive results, whose numbers are uncertain, are shown with a selection of clear calls. Calls follow the shape of the dose curve; as a rule, active = well fitted cell-killing curve with a large enough effect; inconclusive = small, poorly fitted or top-dose-only effect, or effect the other way; inactive = flat fitted curve, though single readings scatter. Potencies of inconclusive entries are doubtful fits and often do not repeat.
# Assay: qHTS assay for MDR1-selective chemotherapeutics: Primary screen using the parental adenocarcinoma cell KB-3-1; also: nearly all actives have a fitted effect of over 60% in size
# Conditions: KB-3-1 viability, CellTiter-Glo ATP luminescence, 72 h; activity change, negative = cytotoxic: at 46.1 µM (top of the series)
# In short: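 Viability of parental KB-3-1 cells, measured by CellTiter-Glo luminescence, followed a 72 h incubation at 37 °C with pinned compounds in phenol-red-free DMEM containing 10% FBS.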
# % is scaled to controls: 0 for no effect and ±100 for the full control effect; potency is read from the fitted curve at half-maximal effect.
SMILES,"activity change, negative = cytotoxic",Potency
O=C(C1CCN(S(=O)(=O)c2ccccc2)CC1)N1CCN(c2ccccc2)CC1,inactive: 5.1%,
Fc1ccccc1/C=C/c1ccc2ccccc2n1,,"inconclusive: 25.9 µM [cytotoxic, partial curve, poor fit]"
CCn1c(=O)n(CC)c2cc(N3CCCC3)c(NC(=O)c3cc(Br)ccc3OC)cc21,,"inconclusive: 20.6 µM [cytotoxic, single point]"
Cc1csc(NC(=O)CSc2nc3[nH]c(=O)cc(O)c3s2)n1,,active: 4.11 µM
CCOC(=O)c1c(S(=O)(=O)NCC(=O)Nc2ccc(C)cc2)c(C)n(C)c1C,,"inconclusive: 9.2 µM [rising, partial curve, poor fit]"
CC1CC(C)CN(c2nc(NCc3ccco3)nc(N)c2[N+](=O)[O-])C1 (stereo not given),,"inconclusive: 18.4 µM [cytotoxic, single point]"
CC(C)CC1c2[nH]c3ccccc3c2CCN1C(=O)c1cnccn1 (stereo not given),,"inconclusive: 29.1 µM [cytotoxic, single point]"
Cc1cc(C(=O)NC2CCCc3c2cnn3-c2cccc(C)c2C)no1 (stereo not given),,active: 1.84 µM
O=C(c1cccc([N+](=O)[O-])c1)n1nc(-c2ccccc2)nc1NCc1ccccc1,,"inconclusive: 23.1 µM [rising, single point]"
Cc1[nH]c2ccccc2c1/C=C/c1cc[n+](C)cc1,,active: 10.3 µM
O=c1c2ccccc2nnn1CSc1nnc(-c2cccs2)n1Cc1ccccc1,,"inconclusive: 29.1 µM [cytotoxic, single point]"
Cn1cc(CN2CCN(c3ccc(Cl)cn3)CC2)c(-c2ccccc2F)n1,inactive: -13.9%,
Cc1cc(C(F)(F)F)n2nc(-c3cnn(C)c3C(F)(F)F)c(Br)c2n1,inactive: 6.28%,
O=C(NC1CCN(Cc2ccccc2)CC1)c1ccccc1OCc1ccccc1Cl,,"inconclusive: 18.4 µM [cytotoxic, partial curve]"
C/C(=N/NC(N)=S)c1ccc(Br)s1,,"inconclusive: 14.6 µM [cytotoxic, partial curve, poor fit]"
COc1cc(OC)c(NC(=O)CSc2nccn2C)cc1Cl,inactive: 5.04%,
Oc1ccccc1N1CCN(c2ncnc3scc(-c4ccccc4)c23)CC1,,"inconclusive: 32.6 µM [cytotoxic, single point]"
CNC(=O)c1ccc2c(c1)N=C(C)c1cc(C)ccc1S2,,active: 18.4 µM
CC(C)CNS(=O)(=O)c1cc(C(=O)OCC(=O)c2ccc3c(c2)OCCO3)c(Cl)cc1Cl,inactive: -5.11%,
CCCn1cnc2c(SCc3ccccc3Cl)nc(N)nc21,,"inconclusive: 29.1 µM [cytotoxic, single point]"
Oc1ccc(Nc2nc(N3CCCC3)c3ccccc3n2)cc1,,active: 9.2 µM
COc1ccc(C2CC(C(F)(F)F)n3nc(C(=O)O)c(Br)c3N2)cc1 (stereo not given),inactive: -12.5%,
CCOc1cc(N2CCOCC2)c(OCC)cc1NC(=O)c1nn(CC)c(=O)c2ccccc12,,"inconclusive: 16.4 µM [cytotoxic, single point]"
CC1=CC(C)C(/C=N/N=C(N)N)C(C)C1 (stereo not given),,"inconclusive: 11.6 µM [cytotoxic, partial curve]"

# Single records (already shown).
# COc1ccc(C2CC(C(F)(F)F)n3nc(C(=O)O)c(Br)c3N2)cc1 (stereo not given) in the list: activity change, negative = cytotoxic: inactive: -12.5%
# Oc1ccccc1N1CCN(c2ncnc3scc(-c4ccccc4)c23)CC1 in the list: Potency: inconclusive: 32.6 µM [cytotoxic, single point]

# Further structures follow:

SMILES,"activity change, negative = cytotoxic",Potency
COc1ccc(/C=N/NC(=O)COc2cccc3cccnc23)cc1OC,,"inconclusive: 9.2 µM [rising, partial curve]"
O=C(c1ccco1)N1CCN(Cc2nc3cc(Cl)ccc3c(=O)[nH]2)CC1,,"inconclusive: 18.4 µM [rising, partial curve, poor fit]"
Cc1ccc(Cl)cc1NC(=O)COC(=O)CC(C)(C)C,,"inconclusive: 23.1 µM [cytotoxic, single point]"
Cc1nn(C)c(C(=O)Sc2ccccc2)c1[N+](=O)[O-],inactive: -2.85%,
Cc1cc2nc(C3CCCN(C(=S)Nc4ccccc4C)C3)[nH]c2cc1C (stereo not given),,"inconclusive: 7.31 µM [rising, partial curve, poor fit]"
CC1CCCC(C)N1C(=O)COC(=O)c1cccc(S(=O)(=O)N(C)c2ccccc2)c1 (stereo not given),inactive: -17%,
c1ccc2c(-c3cc(C4CCNCC4)[nH]n3)cccc2c1,,"inconclusive: 18.4 µM [cytotoxic, single point]"
CC1CC1C(=O)Nc1nc(-c2ccc(Cl)s2)cs1 (stereo not given),,"inconclusive: 20.6 µM [cytotoxic, single point]"
COc1ccc(C(=O)O/N=C(\N)Cc2ccc(Cl)cc2)cc1OC,,"inconclusive: 20.6 µM [cytotoxic, single point]"
CC(C)(C)OC(=O)[C@H](Cc1ccccc1)NC(=O)c1[nH]cnc1C(=O)Nc1ccccc1F,,"inconclusive: 20.6 µM [cytotoxic, single point]"
CC(O)CNc1nc2ccccc2n1-c1ncnc2sc3c(c12)CCC3 (stereo not given),,"inconclusive: 18.4 µM [cytotoxic, single point]"
CCOC(=O)c1cnc2ccc(C)cc2c1Nc1ccc(OCc2ccccc2Cl)cc1,,"inconclusive: 29.1 µM [cytotoxic, single point]"
COc1ccc(CN(C)C2c3ccccc3-c3ccccc32)cc1,,"inconclusive: 20.6 µM [cytotoxic, single point]"
C[N+](C)(CC#Cc1ccccc1)CC(=O)c1ccccc1,inconclusive: -30.3% [cytotoxic],
O=C1CC(/C=C/c2ccccn2)=Nc2ccccc2N1,,active: 18.4 µM
O=C(c1cccc(C(F)(F)F)c1)C1CCCN(Cc2cccc(OCCO)c2)C1 (stereo not given),inconclusive: 2.23%,
O=C(Nc1ccc(S(=O)(=O)NC2=NCCCCC2)cc1)c1ccc([N+](=O)[O-])s1,,active: 6.51 µM
Cc1ccc(NS(=O)(=O)c2ccc3[nH]c4c(c3c2)CCCCCC4)cc1Cl,inactive: -10.9%,
Cc1ccc(SCC(=O)Nc2ccc3c(c2)C(=O)N(C)C3=O)cc1,inactive: 3.27%,
COc1ccccc1NC(=O)Nc1nn(C)c2cccc(OC)c12,inactive: 6.7%,
C=CCOc1c(Br)cc(CNn2c(C)n[nH]c2=S)cc1OC,inactive: 3.56%,
COc1cc(CNCCSc2nnnn2C)cc(Br)c1OCc1ccccc1,,"inconclusive: 29.1 µM [cytotoxic, single point]"
CCCCC(=O)NNC(=S)NC(=O)c1cccc([N+](=O)[O-])c1,,"inconclusive: 18.4 µM [cytotoxic, single point]"
CC(=O)Nc1ccc(NC(=O)c2ccc([N+](=O)[O-])cc2Cl)cc1,,"inconclusive: 29.1 µM [rising, single point]"

SMILES,"activity change, negative = cytotoxic",Potency
CC(C)CNC(=O)COC(=O)c1c2c(nc3ccccc13)/C(=C\c1cccs1)CC2,inactive: -22.4%,
Cc1cccc(N2C(=O)CSC23C(=O)N(Cc2cccc(C(F)(F)F)c2)c2ccccc23)c1 (stereo not given),,"inconclusive: 18.4 µM [cytotoxic, single point]"
COc1ccccc1Sc1nc(-c2ccccc2)ncc1OC,,"inconclusive: 29.1 µM [cytotoxic, single point]"
Cc1cccc(C)c1NC(=S)N=Nc1c(O)n(C)c2ccc(S(=O)(=O)N3CCOCC3)cc12,,"inconclusive: 16.4 µM [cytotoxic, partial curve, poor fit]"
CSc1nc2sc3c(c2c(=O)n1-c1ccccc1C)CCCC3,,"inconclusive: 18.4 µM [cytotoxic, partial curve, poor fit]"
O=C(NCc1cccc(C(F)(F)F)c1)C1CC(c2c(Cl)cccc2Cl)=NO1 (stereo not given),,"inconclusive: 20.6 µM [cytotoxic, single point]"
Cc1ccc(/C=N/NC(=O)c2ccc3c(c2)OCCO3)s1,,active: 20.6 µM
CCOc1ccccc1OCC(=O)N/N=C(\C)Cc1ccc(OC)cc1,,"inconclusive: 20.6 µM [cytotoxic, single point]"
O=C1CC(c2nc3ccccc3n2CCCOc2ccccc2)CN1c1ccc(F)cc1 (stereo not given),,"inconclusive: 29.1 µM [cytotoxic, single point]"
CCC(=O)N1CCc2cc(Br)cc(S(=O)(=O)N(C)c3ccc(OC)cc3OC)c21,,"inconclusive: 32.6 µM [cytotoxic, single point]"
CNC(=O)c1nnsc1S(=O)c1ccc(Cl)cc1 (stereo not given),,"inconclusive: 29.1 µM [cytotoxic, single point]"
COc1ccc(O)cc1CN1CCN(c2ncc(Cc3ccccc3)cn2)CC1,,"inconclusive: 29.1 µM [cytotoxic, partial curve, poor fit]"
Cc1ccc(OCCn2cc(/C=C(\C#N)C(=O)NCC3CCCO3)c3ccccc32)cc1 (stereo not given),inactive: -11.4%,
Clc1ccc(CSc2nc3ccncc3[nH]2)cc1,,"inconclusive: 29.1 µM [cytotoxic, single point]"
Cc1c(C)n(Cc2ccc(Cl)cc2)c2ccc(C(=O)NCCc3ccc(S(N)(=O)=O)cc3)cc12,,"inconclusive: 23.1 µM [cytotoxic, single point]"
CS(=O)(=O)Nc1cccc(NC(=O)C2Cc3c(-c4cccc(F)c4)ccnc3O2)c1 (stereo not given),,active: 6.51 µM
COC(=O)c1ccc(C(=O)NC2CCCc3c2cnn3-c2cc(F)cc(F)c2)nc1 (stereo not given),,"inconclusive: 29.1 µM [cytotoxic, single point]"
CC(=O)Nc1ccc(N(CC(=O)NC2CCCCC2)C(=O)Cn2nnc(-c3ccccc3)n2)cc1,,"inconclusive: 29.1 µM [rising, single point]"
CCOCc1cnc(C)nc1NCC(=O)c1c(C)[nH]c2ccccc12,,active: 23.1 µM
Cc1cc2nsnc2c(S(=O)(=O)N2CCN(C)CC2)c1C,,"inconclusive: 2.06 µM [rising, partial curve, poor fit]"
Cc1ccc(CNc2ncnc3cc(Cl)ccc23)cc1,,"inconclusive: 8.2 µM [cytotoxic, partial curve]"
CCOP(=O)(/C(C#N)=C(\C)O)c1ccccc1 (stereo not given),inactive: -2.94%,
